Reference: the supplement of paper PMC12067093, “Discovery and optimisation of a covalent ligand for TRIM25 and its application to targeted protein ubiquitination” (Chemical Science, 2025)
Some of the results follow.

Sequences of proteins named here, by UniProt entry; tags and fusion partners are left off. A change or cut given only in a name is not applied to a line headed by its entry.
UniProt Q96GN5: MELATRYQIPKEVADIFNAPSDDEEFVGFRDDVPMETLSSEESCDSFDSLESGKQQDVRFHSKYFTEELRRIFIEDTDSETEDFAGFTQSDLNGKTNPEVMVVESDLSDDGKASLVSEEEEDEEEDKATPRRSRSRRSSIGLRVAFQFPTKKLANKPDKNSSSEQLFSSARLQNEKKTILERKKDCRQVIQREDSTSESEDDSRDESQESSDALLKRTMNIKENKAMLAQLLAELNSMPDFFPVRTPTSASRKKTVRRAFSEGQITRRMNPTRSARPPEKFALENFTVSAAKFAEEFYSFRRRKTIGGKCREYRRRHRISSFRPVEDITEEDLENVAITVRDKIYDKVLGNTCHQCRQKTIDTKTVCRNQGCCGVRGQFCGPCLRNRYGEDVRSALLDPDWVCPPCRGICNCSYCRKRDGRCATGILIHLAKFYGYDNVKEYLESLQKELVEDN
UniProt Q6YHK3: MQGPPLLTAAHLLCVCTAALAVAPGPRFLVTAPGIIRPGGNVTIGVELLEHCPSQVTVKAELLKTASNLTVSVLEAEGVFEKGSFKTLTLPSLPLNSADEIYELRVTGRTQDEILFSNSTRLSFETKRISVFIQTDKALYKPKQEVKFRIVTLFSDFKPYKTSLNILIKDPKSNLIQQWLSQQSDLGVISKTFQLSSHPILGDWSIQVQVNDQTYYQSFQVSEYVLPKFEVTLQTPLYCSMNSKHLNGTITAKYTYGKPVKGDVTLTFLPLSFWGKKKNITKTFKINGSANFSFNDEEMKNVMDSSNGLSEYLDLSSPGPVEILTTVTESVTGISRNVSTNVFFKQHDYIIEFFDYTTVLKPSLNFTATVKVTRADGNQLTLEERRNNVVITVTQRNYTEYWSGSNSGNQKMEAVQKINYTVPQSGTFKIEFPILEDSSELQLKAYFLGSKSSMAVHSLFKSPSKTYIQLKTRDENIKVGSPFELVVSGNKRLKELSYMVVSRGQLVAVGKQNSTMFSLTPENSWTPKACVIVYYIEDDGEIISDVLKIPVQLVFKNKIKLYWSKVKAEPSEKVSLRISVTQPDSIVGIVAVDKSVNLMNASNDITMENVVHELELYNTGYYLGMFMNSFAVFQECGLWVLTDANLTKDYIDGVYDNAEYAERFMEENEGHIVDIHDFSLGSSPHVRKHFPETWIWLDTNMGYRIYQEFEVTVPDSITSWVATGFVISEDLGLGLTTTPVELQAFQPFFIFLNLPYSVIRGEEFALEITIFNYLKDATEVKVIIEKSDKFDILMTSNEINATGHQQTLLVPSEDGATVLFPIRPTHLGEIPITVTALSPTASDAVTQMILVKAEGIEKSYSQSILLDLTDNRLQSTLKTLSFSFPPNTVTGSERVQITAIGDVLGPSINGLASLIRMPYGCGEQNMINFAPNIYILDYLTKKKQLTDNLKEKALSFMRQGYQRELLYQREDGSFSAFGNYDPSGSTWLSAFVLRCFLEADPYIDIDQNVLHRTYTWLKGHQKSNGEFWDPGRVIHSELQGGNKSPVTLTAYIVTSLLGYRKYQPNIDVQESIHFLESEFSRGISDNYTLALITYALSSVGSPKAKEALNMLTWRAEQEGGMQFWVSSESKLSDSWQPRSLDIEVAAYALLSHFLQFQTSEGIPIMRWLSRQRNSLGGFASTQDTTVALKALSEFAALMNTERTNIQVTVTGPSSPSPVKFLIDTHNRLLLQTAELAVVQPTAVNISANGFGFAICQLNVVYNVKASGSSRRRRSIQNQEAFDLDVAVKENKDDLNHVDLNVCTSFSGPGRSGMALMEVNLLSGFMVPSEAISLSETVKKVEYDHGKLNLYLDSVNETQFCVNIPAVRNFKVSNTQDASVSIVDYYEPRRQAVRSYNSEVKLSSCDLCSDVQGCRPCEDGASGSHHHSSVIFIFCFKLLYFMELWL
UniProt Q9HC77: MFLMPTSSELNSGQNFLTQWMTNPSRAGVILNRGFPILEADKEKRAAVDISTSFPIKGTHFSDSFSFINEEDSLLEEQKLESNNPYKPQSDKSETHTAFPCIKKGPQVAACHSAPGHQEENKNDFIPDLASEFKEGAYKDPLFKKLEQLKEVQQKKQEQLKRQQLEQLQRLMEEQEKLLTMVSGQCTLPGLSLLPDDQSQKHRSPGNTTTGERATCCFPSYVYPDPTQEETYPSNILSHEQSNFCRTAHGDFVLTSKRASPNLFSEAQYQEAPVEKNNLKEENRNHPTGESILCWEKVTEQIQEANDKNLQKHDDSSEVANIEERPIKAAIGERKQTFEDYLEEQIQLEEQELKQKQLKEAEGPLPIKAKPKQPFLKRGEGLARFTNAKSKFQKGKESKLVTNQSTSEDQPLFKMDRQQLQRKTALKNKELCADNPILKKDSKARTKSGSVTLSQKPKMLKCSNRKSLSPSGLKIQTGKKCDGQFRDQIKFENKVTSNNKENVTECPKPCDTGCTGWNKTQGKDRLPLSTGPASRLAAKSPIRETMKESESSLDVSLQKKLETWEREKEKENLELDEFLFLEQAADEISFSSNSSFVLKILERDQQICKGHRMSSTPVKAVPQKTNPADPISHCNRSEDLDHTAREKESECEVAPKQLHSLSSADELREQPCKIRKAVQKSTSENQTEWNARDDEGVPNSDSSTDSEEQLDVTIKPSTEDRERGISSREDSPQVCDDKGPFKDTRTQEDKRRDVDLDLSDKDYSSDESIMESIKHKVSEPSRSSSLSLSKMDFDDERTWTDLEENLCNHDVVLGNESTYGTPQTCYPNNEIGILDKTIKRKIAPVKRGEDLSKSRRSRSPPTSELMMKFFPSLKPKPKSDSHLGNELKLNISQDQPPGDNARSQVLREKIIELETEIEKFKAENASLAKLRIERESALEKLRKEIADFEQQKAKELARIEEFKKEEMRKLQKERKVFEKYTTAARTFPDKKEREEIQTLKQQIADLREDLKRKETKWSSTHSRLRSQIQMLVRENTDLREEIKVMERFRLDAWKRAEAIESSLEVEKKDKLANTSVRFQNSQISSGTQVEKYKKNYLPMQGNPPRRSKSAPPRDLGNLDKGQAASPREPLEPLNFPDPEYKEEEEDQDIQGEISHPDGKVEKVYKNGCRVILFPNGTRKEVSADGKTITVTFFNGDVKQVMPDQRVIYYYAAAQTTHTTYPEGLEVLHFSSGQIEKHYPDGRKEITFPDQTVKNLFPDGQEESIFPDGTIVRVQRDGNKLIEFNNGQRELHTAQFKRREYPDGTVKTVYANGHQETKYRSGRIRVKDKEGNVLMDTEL
UniProt Q5SW79: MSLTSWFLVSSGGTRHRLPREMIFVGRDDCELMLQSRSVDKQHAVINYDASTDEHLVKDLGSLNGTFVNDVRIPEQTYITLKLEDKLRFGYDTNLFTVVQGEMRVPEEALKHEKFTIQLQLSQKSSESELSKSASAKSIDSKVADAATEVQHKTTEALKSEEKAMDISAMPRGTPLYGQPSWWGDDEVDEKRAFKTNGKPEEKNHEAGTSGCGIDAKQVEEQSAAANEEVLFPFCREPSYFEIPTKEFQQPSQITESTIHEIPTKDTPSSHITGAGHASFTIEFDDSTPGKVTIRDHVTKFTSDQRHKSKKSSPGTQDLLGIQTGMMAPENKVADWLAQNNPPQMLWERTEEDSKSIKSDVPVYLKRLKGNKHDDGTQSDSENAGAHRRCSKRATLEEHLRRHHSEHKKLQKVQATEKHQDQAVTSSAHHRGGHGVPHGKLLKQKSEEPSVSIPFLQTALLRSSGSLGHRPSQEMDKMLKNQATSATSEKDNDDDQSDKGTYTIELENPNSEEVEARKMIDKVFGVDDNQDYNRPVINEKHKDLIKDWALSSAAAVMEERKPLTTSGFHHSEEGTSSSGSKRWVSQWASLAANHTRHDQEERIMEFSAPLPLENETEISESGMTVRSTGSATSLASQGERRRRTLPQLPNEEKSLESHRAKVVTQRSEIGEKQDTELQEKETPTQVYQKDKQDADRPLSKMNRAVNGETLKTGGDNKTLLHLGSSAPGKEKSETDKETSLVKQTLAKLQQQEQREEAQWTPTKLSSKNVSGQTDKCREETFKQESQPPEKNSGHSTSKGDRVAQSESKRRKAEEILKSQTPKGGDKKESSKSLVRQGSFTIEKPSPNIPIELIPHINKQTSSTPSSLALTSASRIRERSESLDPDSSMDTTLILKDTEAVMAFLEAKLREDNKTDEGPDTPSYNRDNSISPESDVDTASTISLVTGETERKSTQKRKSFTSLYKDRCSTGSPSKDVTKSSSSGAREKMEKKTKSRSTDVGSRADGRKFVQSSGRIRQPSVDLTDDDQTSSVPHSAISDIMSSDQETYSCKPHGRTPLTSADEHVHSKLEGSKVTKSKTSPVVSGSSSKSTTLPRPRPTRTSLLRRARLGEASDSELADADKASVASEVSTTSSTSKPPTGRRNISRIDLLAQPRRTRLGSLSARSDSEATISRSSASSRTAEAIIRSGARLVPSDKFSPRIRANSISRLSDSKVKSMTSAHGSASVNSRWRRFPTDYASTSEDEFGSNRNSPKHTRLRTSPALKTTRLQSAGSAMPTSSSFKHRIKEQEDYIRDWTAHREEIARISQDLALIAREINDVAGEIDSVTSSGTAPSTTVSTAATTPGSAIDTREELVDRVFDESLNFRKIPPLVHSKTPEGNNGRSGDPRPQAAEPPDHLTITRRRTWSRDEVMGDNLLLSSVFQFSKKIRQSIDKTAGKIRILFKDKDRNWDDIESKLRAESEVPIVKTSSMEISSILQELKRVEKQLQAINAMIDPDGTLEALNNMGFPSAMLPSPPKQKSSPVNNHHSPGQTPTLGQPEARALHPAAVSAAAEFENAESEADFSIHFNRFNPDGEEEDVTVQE
UniProt P30260, whole entry, looked up: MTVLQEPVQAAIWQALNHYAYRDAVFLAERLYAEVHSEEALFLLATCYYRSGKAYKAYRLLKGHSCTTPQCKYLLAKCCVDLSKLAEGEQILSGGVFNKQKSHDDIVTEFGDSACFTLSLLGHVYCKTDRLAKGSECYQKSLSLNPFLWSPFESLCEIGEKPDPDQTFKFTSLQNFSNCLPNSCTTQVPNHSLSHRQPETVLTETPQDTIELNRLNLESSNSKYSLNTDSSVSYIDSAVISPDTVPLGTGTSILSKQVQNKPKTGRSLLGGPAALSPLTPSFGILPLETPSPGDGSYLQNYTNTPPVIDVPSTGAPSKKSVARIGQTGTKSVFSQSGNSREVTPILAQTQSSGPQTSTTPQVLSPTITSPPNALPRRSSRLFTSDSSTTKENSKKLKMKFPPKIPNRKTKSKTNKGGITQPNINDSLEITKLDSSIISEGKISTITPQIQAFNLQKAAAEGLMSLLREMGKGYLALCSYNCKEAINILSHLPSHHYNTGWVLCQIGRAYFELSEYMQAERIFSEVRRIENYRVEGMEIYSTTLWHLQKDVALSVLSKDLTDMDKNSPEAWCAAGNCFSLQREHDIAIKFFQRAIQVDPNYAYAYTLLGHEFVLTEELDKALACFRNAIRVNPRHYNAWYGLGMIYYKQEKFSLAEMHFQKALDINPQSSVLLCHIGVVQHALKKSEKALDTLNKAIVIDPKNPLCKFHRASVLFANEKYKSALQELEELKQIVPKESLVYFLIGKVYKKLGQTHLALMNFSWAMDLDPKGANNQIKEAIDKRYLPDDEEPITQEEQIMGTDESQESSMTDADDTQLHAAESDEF

Compound: Cc1cc(ccc1-c1ccccc1)C(=O)N1CCCN(CC1)C(=O)CCl [compound 10]
Assay: probe-labelled cysteine peptide fold change vs DMSO (competition) (log2 fold change); higher = less target engagement (more negative = stronger competition)
Conditions: THP-1, incubation time: 4 h
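Note: competitive profiling in live THP-1 cells: cysteine peptides tagged with an iodoacetamide desthiobiotin (IA-DTB) probe, intensity after compound treatment relative to DMSO-treated cells.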

Row | Target | probe-labelled cysteine peptide fold change (10 µM) | probe-labelled cysteine peptide fold change (50 µM)
1 | CES1_P23141_390_SYPLVCIAK (UniProt P23141) | 0.304 | -0.0814
2 | CCT8_P50990_148_AHEILPNLVCCSAK (UniProt P50990) | 0.0236 | 0.162
3 | CDCA7L_Q96GN5_422_CATGILIHLAK (UniProt Q96GN5) | -0.151 | -0.776
4 | CCT6A_P40227_233_RVEDAYILTCNVSLEYEK (UniProt P40227) | 0.118 | 0.3
5 | CD82_P27701_216_TQSGNHPEDWPVYQEGCMEK (UniProt P27701) | -0.269 | -0.033
6 | CEP250_Q9BV73_1740_EVECQQEHIHELQELK (UniProt Q9BV73) | -0.0757 | -0.0757
7 | CD59_P13987_70_FEHCNFNDVTTR (UniProt P13987) | -0.114 | -0.076
8 | CD109_Q6YHK3_1302_ENKDDLNHVDLNVCTSFSGPGR (UniProt Q6YHK3) | 0.108 | -0.288
9 | CENPC_Q03188_472_NMEEHEEMGNDCVSK (UniProt Q03188) | -0.0503 | 0.352
10 | CENPJ_Q9HC77_634_TNPADPISHCNR (UniProt Q9HC77) | -0.114 | 0.0384
11 | CEP170_Q5SW79_967_CSTGSPSK (UniProt Q5SW79) | -0.0458 | -0.497
12 | CDC27_P30260_184_FTSLQNFSNCLPNSCTTQVPNHSLSHR (UniProt P30260) | -0.0972 | -0.0783
13 | CCT7_Q99832_310_DMFCAGR (UniProt Q99832) | 0.0172 | 0.102
14 | CEP192_Q8TEP8_2335_CSPISGLLESHGIQK (UniProt Q8TEP8) | 0.0613 | 0.151

In a second layout: results already given
Row	Target	probe-labelled cysteine peptide fold change (10 µM)	probe-labelled cysteine peptide fold change (50 µM)
10	CENPJ_Q9HC77_634_TNPADPISHCNR (UniProt Q9HC77)	-0.114	0.0384
11	CEP170_Q5SW79_967_CSTGSPSK (UniProt Q5SW79)	-0.0458	-0.497
12	CDC27_P30260_184_FTSLQNFSNCLPNSCTTQVPNHSLSHR (UniProt P30260)	-0.0972	-0.0783
